The source of these data is paper PMC7744550, “Structurally distinct telomere-binding proteins in Ustilago maydis execute non-overlapping functions in telomere replication, recombination, and protection”.

For some of these results: No signal at the amounts used counts as a negative. For some of these results: At least one verdict rests on a figure or table, not on a statement of the authors. Where a protein sequence is shown, tags need not be part of it. For some of these results: Weaker means in comparison with the reference protein, sequence or condition of that experiment. For some of these results: Construct, isoform or probe ends are uncertain for at least one entry.

The target of series [1] is T1, Tay1-FG (Ustilago maydis) (UniProt A0A0D1CTG7).
T1 sequence (looked up, limits assumed): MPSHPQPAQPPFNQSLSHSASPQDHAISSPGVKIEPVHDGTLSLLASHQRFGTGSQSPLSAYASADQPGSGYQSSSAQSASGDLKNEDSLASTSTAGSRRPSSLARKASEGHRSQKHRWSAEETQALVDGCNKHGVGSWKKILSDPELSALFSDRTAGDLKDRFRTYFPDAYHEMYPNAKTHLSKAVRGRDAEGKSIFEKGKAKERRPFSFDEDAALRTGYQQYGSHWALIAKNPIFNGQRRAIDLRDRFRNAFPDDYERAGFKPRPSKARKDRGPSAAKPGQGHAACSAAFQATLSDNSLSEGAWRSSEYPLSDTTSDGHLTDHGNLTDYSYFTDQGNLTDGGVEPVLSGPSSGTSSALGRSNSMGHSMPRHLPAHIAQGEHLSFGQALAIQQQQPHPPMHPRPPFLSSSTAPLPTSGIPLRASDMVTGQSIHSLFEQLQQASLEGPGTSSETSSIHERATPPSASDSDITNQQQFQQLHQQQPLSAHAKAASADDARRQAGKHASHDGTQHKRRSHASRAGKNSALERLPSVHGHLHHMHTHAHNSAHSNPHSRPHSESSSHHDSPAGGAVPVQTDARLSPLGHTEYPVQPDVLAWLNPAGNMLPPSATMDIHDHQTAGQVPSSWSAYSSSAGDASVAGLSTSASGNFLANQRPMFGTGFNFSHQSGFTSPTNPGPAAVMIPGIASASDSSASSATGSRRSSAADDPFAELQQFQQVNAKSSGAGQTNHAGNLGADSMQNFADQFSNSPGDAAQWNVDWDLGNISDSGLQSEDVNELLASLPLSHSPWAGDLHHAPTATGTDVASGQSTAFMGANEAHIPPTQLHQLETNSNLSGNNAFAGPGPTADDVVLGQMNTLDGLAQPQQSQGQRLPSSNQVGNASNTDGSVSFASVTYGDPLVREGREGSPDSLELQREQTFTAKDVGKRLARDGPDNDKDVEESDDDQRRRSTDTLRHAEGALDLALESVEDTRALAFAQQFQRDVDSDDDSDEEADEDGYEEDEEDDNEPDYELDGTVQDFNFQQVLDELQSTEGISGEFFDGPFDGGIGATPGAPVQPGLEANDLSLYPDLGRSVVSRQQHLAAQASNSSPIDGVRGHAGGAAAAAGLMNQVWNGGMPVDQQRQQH
Description: EMSA. Particulars: 5 nM probe; 25 mM HEPES-KOH pH 7.5, 5% glycerol, 3 mM MgCl2, 0.1 mM EDTA, 1 mM DTT, 0.5 µg/µl BSA, 1-10 nM 32P probe, 22 °C 15 min; 6% native PAGE in 0.2x TBE; recombinant protein; protein details: C-terminal FLAG (His-SUMO cleaved by ULP1); label: 32P. Background: Mobility shift assays separate free from complexed probe on a gel.

Series [2] has as its target T2, Trf2∆N-FG3 (Ustilago maydis) (UniProt A0A0D1E1Z3).
T2 sequence (looked up): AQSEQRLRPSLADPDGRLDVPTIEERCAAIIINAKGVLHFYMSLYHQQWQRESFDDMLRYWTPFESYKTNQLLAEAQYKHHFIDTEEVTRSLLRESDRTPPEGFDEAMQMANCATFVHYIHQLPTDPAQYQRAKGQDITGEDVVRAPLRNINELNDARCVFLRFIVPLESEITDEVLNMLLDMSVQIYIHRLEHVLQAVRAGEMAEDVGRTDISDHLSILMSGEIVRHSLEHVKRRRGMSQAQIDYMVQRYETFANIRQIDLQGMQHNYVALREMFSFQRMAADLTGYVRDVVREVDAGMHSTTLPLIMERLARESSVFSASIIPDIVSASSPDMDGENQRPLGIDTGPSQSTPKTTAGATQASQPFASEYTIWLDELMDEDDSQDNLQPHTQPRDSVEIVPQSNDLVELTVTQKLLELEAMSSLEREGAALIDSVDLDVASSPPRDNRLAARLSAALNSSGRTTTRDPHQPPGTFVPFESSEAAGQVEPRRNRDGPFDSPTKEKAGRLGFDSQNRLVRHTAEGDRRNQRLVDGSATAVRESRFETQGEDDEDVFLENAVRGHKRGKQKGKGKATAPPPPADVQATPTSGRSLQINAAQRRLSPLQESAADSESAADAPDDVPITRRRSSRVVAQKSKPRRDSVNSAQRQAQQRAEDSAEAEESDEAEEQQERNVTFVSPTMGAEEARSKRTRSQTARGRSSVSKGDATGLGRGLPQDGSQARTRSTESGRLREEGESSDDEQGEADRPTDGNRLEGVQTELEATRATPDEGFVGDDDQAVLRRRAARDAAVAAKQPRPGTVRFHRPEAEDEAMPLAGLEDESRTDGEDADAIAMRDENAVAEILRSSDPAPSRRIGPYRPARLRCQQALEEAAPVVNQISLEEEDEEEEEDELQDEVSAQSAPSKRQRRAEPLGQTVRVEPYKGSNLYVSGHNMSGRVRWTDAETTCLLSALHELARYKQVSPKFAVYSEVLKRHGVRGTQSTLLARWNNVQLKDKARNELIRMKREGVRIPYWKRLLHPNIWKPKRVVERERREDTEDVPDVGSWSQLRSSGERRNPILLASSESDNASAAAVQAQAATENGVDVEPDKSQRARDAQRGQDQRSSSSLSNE
Description: EMSA. Particulars: 25 mM HEPES-KOH pH 7.5, 5% glycerol, 3 mM MgCl2, 0.1 mM EDTA, 1 mM DTT, 0.5 µg/µl BSA, 1-10 nM 32P probe, 22 °C 15 min; 6% native PAGE in 0.2x TBE; recombinant protein; residues 416-1528; protein details: C-terminal FG3 (His-SUMO cleaved by ULP1); label: 32P.

Series [3] deals with T1, Tay1-FG (Ustilago maydis). Description: competition with a labelled probe. Particulars: unlabeled competitor, 25 mM HEPES-KOH pH 7.5, 5% glycerol, 3 mM MgCl2, 0.1 mM EDTA, 1 mM DTT, 0.5 µg/µl BSA, 1-10 nM 32P probe, 22 °C 15 min, 6% native PAGE in 0.2x TBE, recombinant protein, protein details: C-terminal FLAG (His-SUMO cleaved by ULP1).
The target in series [4] is T2, Trf2∆N-FG3 (Ustilago maydis). Description: competition with a labelled probe. Particulars: unlabeled competitor, 25 mM HEPES-KOH pH 7.5, 5% glycerol, 3 mM MgCl2, 0.1 mM EDTA, 1 mM DTT, 0.5 µg/µl BSA, 1-10 nM 32P probe, 22 °C 15 min, 6% native PAGE in 0.2x TBE, recombinant protein, residues 416-1528, protein details: C-terminal FG3 (His-SUMO cleaved by ULP1).
For series [5], the target named is T3, Trf2-Myb(1350-1528) (Ustilago maydis) (UniProt A0A0D1E1Z3).
T3 sequence (looked up): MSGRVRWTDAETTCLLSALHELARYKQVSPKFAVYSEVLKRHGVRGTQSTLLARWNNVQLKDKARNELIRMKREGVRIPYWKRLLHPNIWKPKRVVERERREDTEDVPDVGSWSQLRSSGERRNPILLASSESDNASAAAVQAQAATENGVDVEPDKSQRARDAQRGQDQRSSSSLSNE
Description: EMSA. The conditions noted are these: 25 mM HEPES-KOH pH 7.5, 5% glycerol, 3 mM MgCl2, 0.1 mM EDTA, 1 mM DTT, 0.5 µg/µl BSA, 1-10 nM 32P probe, 22 °C 15 min; 6% native PAGE in 0.2x TBE; recombinant protein; residues 1350-1528; protein details: C-terminal FLAG (His-SUMO cleaved by ULP1); label: 32P (as probe).

The target in series [6] is T4, Trf2-TRFH(416-1349) (Ustilago maydis) (UniProt A0A0D1E1Z3).
T4 sequence (looked up): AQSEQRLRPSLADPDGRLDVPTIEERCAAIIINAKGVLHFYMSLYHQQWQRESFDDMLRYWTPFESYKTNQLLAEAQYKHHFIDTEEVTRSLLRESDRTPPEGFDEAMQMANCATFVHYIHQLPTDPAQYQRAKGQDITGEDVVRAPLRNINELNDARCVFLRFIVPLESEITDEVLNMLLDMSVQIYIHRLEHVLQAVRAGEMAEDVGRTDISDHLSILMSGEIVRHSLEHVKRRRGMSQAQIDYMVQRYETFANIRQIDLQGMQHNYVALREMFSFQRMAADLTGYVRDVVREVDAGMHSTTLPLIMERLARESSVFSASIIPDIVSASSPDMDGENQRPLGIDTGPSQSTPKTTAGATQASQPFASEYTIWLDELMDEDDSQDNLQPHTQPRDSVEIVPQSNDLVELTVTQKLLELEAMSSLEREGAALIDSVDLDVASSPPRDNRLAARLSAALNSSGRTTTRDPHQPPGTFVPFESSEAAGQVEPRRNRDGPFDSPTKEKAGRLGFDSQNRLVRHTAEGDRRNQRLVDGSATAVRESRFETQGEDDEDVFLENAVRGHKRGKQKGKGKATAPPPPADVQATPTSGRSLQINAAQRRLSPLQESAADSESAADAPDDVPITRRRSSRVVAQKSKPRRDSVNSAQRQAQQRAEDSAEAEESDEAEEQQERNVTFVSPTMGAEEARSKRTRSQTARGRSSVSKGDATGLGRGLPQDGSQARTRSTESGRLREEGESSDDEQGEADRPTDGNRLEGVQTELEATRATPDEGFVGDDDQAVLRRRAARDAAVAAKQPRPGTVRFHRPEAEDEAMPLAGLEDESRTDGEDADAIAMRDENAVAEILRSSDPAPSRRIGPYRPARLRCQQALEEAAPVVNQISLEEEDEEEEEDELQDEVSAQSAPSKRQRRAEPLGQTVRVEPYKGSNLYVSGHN
Description: EMSA. Particulars: 25 mM HEPES-KOH pH 7.5, 5% glycerol, 3 mM MgCl2, 0.1 mM EDTA, 1 mM DTT, 0.5 µg/µl BSA, 1-10 nM 32P probe, 22 °C 15 min; 6% native PAGE in 0.2x TBE; recombinant protein; residues 416-1349; protein details: C-terminal FLAG (His-SUMO cleaved by ULP1); label: 32P (as probe).

As for “TTAGGGTTAGGGTTAG (double strand) [TTAGGG2.5 ds]”, the binding result in series [1] and in series [2] was “binds more weakly” in each case.

With “TTAGTCAGGGTTAGTCAGGGTTAGT (double strand) [YlTEL]”, the binding result in series [3] (slightly less active than TTAGGG4) is listed as “binds more weakly”; in series [4], “binds”.

On to “TTAGGGTTAGGGTTAGGGTTAG (double strand) [TTAGGG3.5 ds]”, for which the binding result in series [1] and in series [2] was “binds” in each case.

With “GGTTAGGGTTAG (double strand) [TTAGGG2 ds]”, the binding result in series [1] and in series [2] was “no binding” each time.

In the case of “TTAGGGTTAGGGTTAGGGTTAGGG (double strand) [TTAGGG4 ds]”, the binding result in series [3] (label: 32P (as probe)) is recorded as “binds”; in series [4] (label: 32P (as probe)), “binds”; in series [5], “binds more weakly”; in series [6], “no binding”.

With “TGGGGTCTGGGTGCTG (double strand) [CgTEL]”, the binding result in series [4] ("just like Tay1") is “no binding”.
